Test results from article PMC10073623.
These are yes or no findings as the source states them, for the method shown. In cells and extracts the contact can be indirect. Some results given as binding are weak or reduced against the parent protein; the word gives no strength.

Biological target: Yes-associated protein1 (YAP1) (human (endogenous in AGS)), P46937
Experiment: co-IP
Settings: remark: other sources report otherwise

- binding: binds
B1: TEAD3, Q99594 1-435 (protein)
chain: MASNSWNASSSPGEAREDGPEGLDKGLDNDAEGVWSPDIEQSFQEALAIYPPCGRRKIILSDEGKMYGRNELIARYIKLRTGKTRTRKQVSSHIQVLARKKVREYQVGIKAMNLDQVSKDKALQSMASMSSAQIVSASVLQNKFSPPSPLPQAVFSTSSRFWSSPPLLGQQPGPSQDIKPFAQPAYPIQPPLPPTLSSYEPLAPLPSAAASVPVWQDRTIASSRLRLLEYSAFMEVQRDPDTYSKHLFVHIGQTNPAFSDPPLEAVDVRQIYDKFPEKKGGLKELYEKGPPNAFFLVKFWADLNSTIQEGPGAFYGVSSQYSSADSMTISVSTKVCSFGKQVVEKVETEYARLENGRFVYRIHRSPMCEYMINFIHKLKHLPEKYMMNSVLENFTILQVVTSRDSQETLLVIAFVFEVSTSEHGAQHHVYKLVKD
